# Results from one PubChem assay

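Malaria parasite (P. falciparum) lines kept in red blood cells; parasite DNA is measured by SYBR Green fluorescence after lysis, 72 h after compound addition. Each compound was titrated across a series from about 0.000037 to 29 µM. The number is the fitted AC50, the concentration giving a half-maximal change in signal; a lower value means higher potency, whether the curve shows a decrease or an increase. Calls follow the curve class and fit quality: every row here is inconclusive, covering signal-raising curves and weak, poorly fitted, partial or highest-dose-only inhibition curves.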

Values are in nM. All entries here are filed as inconclusive. These entries are mostly ones the record files as inconclusive; other results of the assay are not listed here. A potency from a partial, single-point or poor curve is only a rough figure. The first word of each remark tells which way the curve ran; it can be opposite to the aim of the assay.

| compound | setting | fitted potency (nM) | remark |
|---|---|---|---|
| `O=c1oc2c(O)c(O)cc3c(=O)oc4c(O)c(O)cc1c4c23` | CP247 | 3981 | inhibitor, single point |
| `O=c1oc2c(O)c(O)cc3c(=O)oc4c(O)c(O)cc1c4c23` | DIV30 | 3381 | inhibitor, single point |
| `O=c1oc2c(O)c(O)cc3c(=O)oc4c(O)c(O)cc1c4c23` | CP262 | 1069 | inhibitor, partial curve, poor fit |
| `O=c1oc2c(O)c(O)cc3c(=O)oc4c(O)c(O)cc1c4c23` | SC27B | 3548 | inhibitor, single point |
| `O=c1oc2c(O)c(O)cc3c(=O)oc4c(O)c(O)cc1c4c23` | CP256 | 3981 | inhibitor, single point |
| `O=c1oc2c(O)c(O)cc3c(=O)oc4c(O)c(O)cc1c4c23` | CP217 | 3981 | inhibitor, single point |
| `O=c1oc2c(O)c(O)cc3c(=O)oc4c(O)c(O)cc1c4c23` | CP305 | 1510 | inhibitor, partial curve, poor fit |
| `O=c1oc2c(O)c(O)cc3c(=O)oc4c(O)c(O)cc1c4c23` | TAB113 | 3162 | inhibitor, single point |
| `O=c1oc2c(O)c(O)cc3c(=O)oc4c(O)c(O)cc1c4c23` | DIV17 | 1069 | inhibitor, partial curve, poor fit |
| `O=c1oc2c(O)c(O)cc3c(=O)oc4c(O)c(O)cc1c4c23` | CP211 | 3013 | inhibitor, single point |
| `O=c1oc2c(O)c(O)cc3c(=O)oc4c(O)c(O)cc1c4c23` | FAB9 | 3548 | inhibitor, single point |
| `O=c1oc2c(O)c(O)cc3c(=O)oc4c(O)c(O)cc1c4c23` | P93_24 | 3981 | inhibitor, single point |
| `O=c1oc2c(O)c(O)cc3c(=O)oc4c(O)c(O)cc1c4c23` | CP250 | 3981 | inhibitor, single point |
| `O=c1oc2c(O)c(O)cc3c(=O)oc4c(O)c(O)cc1c4c23` | TAB109 | 3981 | inhibitor, single point |
| `O=c1oc2c(O)c(O)cc3c(=O)oc4c(O)c(O)cc1c4c23` | CP194 | 1901 | inhibitor, single point |
| `O=c1oc2c(O)c(O)cc3c(=O)oc4c(O)c(O)cc1c4c23` | CP268 | 13459 | inhibitor, single point |
| `O=c1oc2c(O)c(O)cc3c(=O)oc4c(O)c(O)cc1c4c23` | CP201 | 4256 | inhibitor, single point |
| `O=c1oc2c(O)c(O)cc3c(=O)oc4c(O)c(O)cc1c4c23` | CP266 | 756.9 | activator, single point |
| `O=c1oc2c(O)c(O)cc3c(=O)oc4c(O)c(O)cc1c4c23` | CP315 | 3381 | inhibitor, single point |
| `O=c1oc2c(O)c(O)cc3c(=O)oc4c(O)c(O)cc1c4c23` | DFO2036 | 3981 | inhibitor, single point |
| `O=c1oc2c(O)c(O)cc3c(=O)oc4c(O)c(O)cc1c4c23` | ATS189 | 3981 | inhibitor, single point |
| `O=c1oc2c(O)c(O)cc3c(=O)oc4c(O)c(O)cc1c4c23` | CP252 | 3981 | inhibitor, single point |
| `O=c1oc2c(O)c(O)cc3c(=O)oc4c(O)c(O)cc1c4c23` | DIV14 | 6746 | inhibitor, single point |
| `O=c1oc2c(O)c(O)cc3c(=O)oc4c(O)c(O)cc1c4c23` | ECU | 3981 | inhibitor, single point |
| `O=c1oc2c(O)c(O)cc3c(=O)oc4c(O)c(O)cc1c4c23` | CP238 | 3548 | inhibitor, single point |
| `O=c1oc2c(O)c(O)cc3c(=O)oc4c(O)c(O)cc1c4c23` | C2A | 3981 | inhibitor, partial curve |
| `O=c1oc2c(O)c(O)cc3c(=O)oc4c(O)c(O)cc1c4c23` | PAD | 3981 | inhibitor, single point |
| `O=c1oc2c(O)c(O)cc3c(=O)oc4c(O)c(O)cc1c4c23` | CP192 | 1901 | inhibitor, single point |
| `O=c1oc2c(O)c(O)cc3c(=O)oc4c(O)c(O)cc1c4c23` | ATS95 | 3162 | inhibitor, single point |
| `O=c1oc2c(O)c(O)cc3c(=O)oc4c(O)c(O)cc1c4c23` | N140 | 3981 | inhibitor, single point |
| `O=c1oc2c(O)c(O)cc3c(=O)oc4c(O)c(O)cc1c4c23` | CP215 | 3013 | inhibitor, single point |
| `O=c1oc2c(O)c(O)cc3c(=O)oc4c(O)c(O)cc1c4c23` | P94_40 | 2818 | inhibitor, single point |
| `COc1cc(/C=C/C(=O)CC(=O)/C=C/c2ccc(O)c(OC)c2)ccc1O` | CP237 | 8912 | inhibitor, partial curve |
| `COc1cc(/C=C/C(=O)CC(=O)/C=C/c2ccc(O)c(OC)c2)ccc1O` | CP325 | 19011 | inhibitor, single point |
| `COc1cc(/C=C/C(=O)CC(=O)/C=C/c2ccc(O)c(OC)c2)ccc1O` | CP260 | 11220 | inhibitor, single point |
| `COc1cc(/C=C/C(=O)CC(=O)/C=C/c2ccc(O)c(OC)c2)ccc1O` | PC15 | 11220 | inhibitor, single point |
| `COc1cc(/C=C/C(=O)CC(=O)/C=C/c2ccc(O)c(OC)c2)ccc1O` | P94_40 | 11220 | inhibitor, single point |
| `COc1cc(/C=C/C(=O)CC(=O)/C=C/c2ccc(O)c(OC)c2)ccc1O` | CP262 | 16944 | inhibitor, single point |
| `COc1cc(/C=C/C(=O)CC(=O)/C=C/c2ccc(O)c(OC)c2)ccc1O` | CP305 | 19011 | inhibitor, single point |
| `COc1cc(/C=C/C(=O)CC(=O)/C=C/c2ccc(O)c(OC)c2)ccc1O` | CP192 | 11995 | inhibitor, single point |
| `COc1cc(/C=C/C(=O)CC(=O)/C=C/c2ccc(O)c(OC)c2)ccc1O` | TAB109 | 17782 | inhibitor, single point |
| `COc1cc(/C=C/C(=O)CC(=O)/C=C/c2ccc(O)c(OC)c2)ccc1O` | CP315 | 19011 | inhibitor, single point |
| `COc1cc(/C=C/C(=O)CC(=O)/C=C/c2ccc(O)c(OC)c2)ccc1O` | CP252 | 11220 | inhibitor, single point |
| `COc1cc(/C=C/C(=O)CC(=O)/C=C/c2ccc(O)c(OC)c2)ccc1O` | SC27B | 17782 | inhibitor, single point |
| `COc1cc(/C=C/C(=O)CC(=O)/C=C/c2ccc(O)c(OC)c2)ccc1O` | PAD | 15848 | inhibitor, single point |
| `COc1cc(/C=C/C(=O)CC(=O)/C=C/c2ccc(O)c(OC)c2)ccc1O` | AA1029 | 10000 | inhibitor, single point |
| `COc1cc(/C=C/C(=O)CC(=O)/C=C/c2ccc(O)c(OC)c2)ccc1O` | HB3 | 17782 | inhibitor, single point |
| `COc1cc(/C=C/C(=O)CC(=O)/C=C/c2ccc(O)c(OC)c2)ccc1O` | N140 | 11220 | inhibitor, single point |
| `COc1cc(/C=C/C(=O)CC(=O)/C=C/c2ccc(O)c(OC)c2)ccc1O` | CP286 | 17782 | inhibitor, single point |
| `COc1cc(/C=C/C(=O)CC(=O)/C=C/c2ccc(O)c(OC)c2)ccc1O` | ICS | 11220 | inhibitor, single point |
| `COc1cc(/C=C/C(=O)CC(=O)/C=C/c2ccc(O)c(OC)c2)ccc1O` | CP194 | 16944 | inhibitor, single point |

The first 3 entries again:

compound	setting	fitted potency (nM)	remark
O=c1oc2c(O)c(O)cc3c(=O)oc4c(O)c(O)cc1c4c23	CP247	3981	inhibitor, single point
O=c1oc2c(O)c(O)cc3c(=O)oc4c(O)c(O)cc1c4c23	DIV30	3381	inhibitor, single point
O=c1oc2c(O)c(O)cc3c(=O)oc4c(O)c(O)cc1c4c23	CP262	1069	inhibitor, partial curve, poor fit

Source: PubChem BioAssay AID504749 (NCATS, 2011).